The name of at least one read-out is uncertain.
System: TNF-α in RAW264.7 macrophages stimulated by lipopolysaccharide
Assay: TNF-α ELISA in cell supernatant of LPS-stimulated RAW264.7 macrophages
Assay type: cell-based, mice
Conditions: 10 μM, 3 h pretreatment, LPS 100 ng/mL 2 h
Method: RAW264.7 cells were inoculated into a 96-well plate at a density of 1×10^5 per well. When the cell density was 70%-80%, 18 balasubramide derivatives were prepared into 10 mM working solutions with DMSO, respectively, and then used to pretreat mononuclear macrophages RAW264.7 of mice at a final concentration of 10 μM. After 3 h, lipopolysaccharide (LPS, 100 ng/mL) was added into all wells for action for 2 h except for a control group. A supernatant was collected for later use, and the expression level of an inflammatory factor TNF-α in the cell supernatant was detected according to an operation instruction of a commercial ELISA kit.
RAW264.7 cells were inoculated into a 96-well plate at a density of 1×10^5 per well. When the cell density was 70%-80%, the RAW264.7 cells were pretreated with (+)3C-20 ([…]). After 3 h, lipopolysaccharide (LPS, 100 ng/mL) was added into all wells for action for 2 h except for a control group. The expression level of an inflammatory factor TNF-α in a cell supernatant was detected according to an operation instruction of a commercial ELISA kit, and the cell viability at different administration concentrations of (+)3C-20 was determined according to an operation instruction of a CCK-8 kit.

## O=C(CCc1ccc(C(F)(F)F)cc1)O[C@@H]1C(=O)NCCc2c([nH]c3ccccc23)[C@H]1c1ccc(C(F)(F)F)cc1 [(+)-3C-20]
  Percentage of TNF-α in a model group (%): 45.29 ± 2.89 %

— patent US20240300959A1, “BALASUBRAMIDE DERIVATIVE AND USE THEREOF IN PREPARATION OF MEDICINE FOR TREATING ACUTE LUNG INJURY” (Guangdong Pharmaceutical University, priority 2023, published 2024)
